Experimental data published in patent publication US7008623 (GlaxoSmithKline, dated 2006).
Results are given in words; binding and its absence hold for the method and conditions named. Some binding calls cover weakened binding; strength is not graded here.

Key:
soluble CD23 (sCD23) [1] = target: T1, soluble CD23 (sCD23) (human, UniProt P06734 150-321, limits assumed); experiment: ELISA, sCD23 coated on plate
T1 sequence (looked up): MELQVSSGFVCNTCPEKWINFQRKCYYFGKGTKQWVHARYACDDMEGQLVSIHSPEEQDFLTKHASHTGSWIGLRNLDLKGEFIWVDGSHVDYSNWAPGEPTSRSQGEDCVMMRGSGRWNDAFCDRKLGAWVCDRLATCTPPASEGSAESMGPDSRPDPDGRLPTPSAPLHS

[2] = target: T2, membrane CD23 (surface CD23 on cells, e.g. RPMI 8866 cells) (human) (UniProt P06734); experiment: FACS on cells carrying membrane CD23
T2 sequence (looked up): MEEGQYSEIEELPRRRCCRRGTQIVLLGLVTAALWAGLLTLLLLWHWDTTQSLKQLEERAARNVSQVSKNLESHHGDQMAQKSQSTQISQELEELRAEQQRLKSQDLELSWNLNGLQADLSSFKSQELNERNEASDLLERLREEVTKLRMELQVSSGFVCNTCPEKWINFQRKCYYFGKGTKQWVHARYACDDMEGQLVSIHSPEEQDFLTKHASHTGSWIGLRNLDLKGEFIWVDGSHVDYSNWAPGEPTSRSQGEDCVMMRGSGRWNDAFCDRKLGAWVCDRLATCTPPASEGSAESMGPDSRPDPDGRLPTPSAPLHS

soluble CD23 (sCD23) [3] = target: T1, soluble CD23 (sCD23); experiment: ELISA, plate coated with sCD23, OD against antibody concentration
soluble CD23 (sCD23) [4] = target: T1, soluble CD23 (sCD23); experiment: ELISA, sCD23 coated on plate, COS supernatant, anti-human kappa peroxidase detection
[5] = target: T2, membrane CD23 (surface CD23 on cells, e.g. RPMI 8866 cells) (human); experiment: flow cytometry on RPMI 8866 cells

Measured: binding

B1: chimaeric anti-CD23 antibody (murine C11 variable regions, human gamma 1 and human kappa constant regions) (antibody, human IgG1, V domains shown)
VH: EVKLEESGGGLVQPGGSMKLSCVASGFTFSGYWMSWVRQSPEKGLEWVAEIRLKSDNYATHYAESVKGKFTISRDDSKSRLYLQMNSLRAEDSGVYYCTDFIDWGQGTL
VL: DIVITQDELSNPVTSGESVSISCRSSKSLLYKDGKTYLNWFLQRPGQSPQLLMYLMSTRASGVSDRFSGSGSGTDFTLEISRVKAEDVGVYYCQQLVEYPFTFGSGTKLEIKR
notes: The VH is fused to the human IgG1 (gamma 1) constant region of Reichmann et al 1988 and the VL to the human kappa constant region of Reichmann et al 1988; It was transiently expressed in COS cells and tested as supernatant; The variable regions were amplified with signal-peptide primers, so the entries may include a leader, and no cleavage site is stated; also called chimeric CD23; chimaeric CD23 …
not listed: [5]
binds: all other assays above

B2: humanised anti-CD23 antibody (IgG1 with mutations 248 Leu to Ala and 250 Gly to Ala, human kappa) (antibody, V domains shown)
VH: EVQLVESGGGLVKPGGSLRLSCAASGFTFSGYWMSWVRQAPGKGLEWVAEIRLKSDNYATHYAESVKGKFTISRDDSKSRLYLQMNSLKTEDTAVYYCTDFIDWGQGTLVTVSS
VL: DIVMTQSPLSLPVTPGEPASISCRSSKSLLYKDGKTYLNWYLQKPGQSPQLLIYLMSTRASGVPDRFSGSGSGTDFTLKISRVEAEDVGVYYCQQLVEYPFTFGQGTKVEIKR
notes: The light chain constant region is human kappa; also called humanised CD23 IgG1m
binds: [5] | soluble CD23 (sCD23) [3]
